{"source": "the supplement of paper PMC8728848", "binders": {"B1": {"name": "Protein L(B1-B4) (Finegoldia magna), Q51912 (protein)", "chain": "KEETPETPETDSEEEVTIKANLIFANGSTQTAEFKGTFEKATSEAYAYADTLKKDNGEYTVDVADKGYTLNIKFAGKEKTPEEPKEEVTIKANLIYADGKTQTAEFKGTFEEATAEAYRYADALKKDNGEYTVDVADKGYTLNIKFAGKEKTPEEPKEEVTIKANLIYADGKTQTAEFKGTFEEATAEAYRYADLLAKENGKYTVDVADKGYTLNIKFAGKEKTPEEPKEEVTIKANLIYADGKTQTAEFKGTFAEATAEAYRYADLLAKENGKYTADLEDGGYTINIRFAG"}}, "assay_in_all_cases": "glycan array binding signal (z-score within array); higher = stronger binding", "details_in_all_cases": "glycan notation: IUPAC condensed, linker removed", "key": {"[1]": {"biological_target": "Neu5Ac(a2-3)Gal(b1-4)GlcNAc(b1-6)GalNAc", "method_in_brief": "(§1)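 The binding signal is a Z-score computed within each array and averaged over linkers. Arrays of the same protein sequence at different concentrations or buffers were also averaged together. Data originate from 3228 arrays in the Consortium for Functional Glycomics database, kept only where the protein sequence was available.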"}, "[2]": {"biological_target": "Neu5Ac(a2-3)Gal(b1-4)GlcNAc(b1-6)[Gal(b1-3)]GalNAc", "method_in_brief": "as §1"}, "[3]": {"biological_target": "Neu5Ac(a2-3)Gal(b1-4)GlcNAc(b1-6)[Neu5Ac(a2-3)Gal(b1-3)]GalNAc", "method_in_brief": "as §1"}, "[4]": {"biological_target": "Neu5Ac(a2-3)Gal(b1-4)GlcNAc6S", "method_in_brief": "as §1"}, "[5]": {"biological_target": "Neu5Ac(a2-3)Gal(b1-4)[Fuc(a1-3)]GlcNAc", "method_in_brief": "as §1"}, "[6]": {"biological_target": "Neu5Ac(a2-3)Gal(b1-4)[Fuc(a1-3)]GlcNAc(b1-2)Man", "method_in_brief": "as §1"}, "[7]": {"biological_target": "Neu5Ac(a2-3)Gal(b1-4)[Fuc(a1-3)]GlcNAc(b1-3)Gal", "method_in_brief": "as §1"}, "[8]": {"biological_target": "Neu5Ac(a2-3)Gal(b1-4)[Fuc(a1-3)]GlcNAc(b1-3)Gal(b1-4)GlcNAc", "method_in_brief": "as §1"}, "[9]": {"biological_target": "Neu5Ac(a2-3)Gal(b1-4)[Fuc(a1-3)]GlcNAc(b1-3)Gal(b1-4)[Fuc(a1-3)]GlcNAc(b1-3)Gal(b1-4)[Fuc(a1-3)]GlcNAc", "method_in_brief": "as §1"}, "[10]": {"biological_target": "Neu5Ac(a2-3)Gal(b1-4)[Fuc(a1-3)]GlcNAc(b1-3)GalNAc", "method_in_brief": "as §1"}, "[11]": {"biological_target": "Neu5Ac(a2-3)Gal(b1-4)[Fuc(a1-3)]GlcNAc(b1-6)[Gal(b1-3)]GalNAc", "method_in_brief": "as §1"}, "[12]": {"biological_target": "Neu5Ac(a2-3)Gal(b1-4)[Fuc(a1-3)]GlcNAc(b1-6)[Neu5Ac(a2-3)Gal(b1-3)]GalNAc", "method_in_brief": "as §1"}, "[13]": {"biological_target": "Neu5Ac(a2-3)Gal(b1-4)[Fuc(a1-3)]GlcNAc6S", "method_in_brief": "as §1"}, "[14]": {"biological_target": "Neu5Ac(a2-3)Gal6S(b1-4)GlcNAc", "method_in_brief": "as §1"}, "[15]": {"biological_target": "Neu5Ac(a2-3)Gal6S(b1-4)[Fuc(a1-3)]GlcNAc", "method_in_brief": "as §1"}, "Neu5Ac(a2-3)GalNAc": {"biological_target": "Neu5Ac(a2-3)GalNAc", "method_in_brief": "as §1"}, "[16]": {"biological_target": "Neu5Ac(a2-3)GalNAc(b1-4)GlcNAc", "method_in_brief": "as §1"}, "[17]": {"biological_target": "Neu5Ac(a2-3)[GalNAc(b1-4)]Gal(b1-4)Glc", "method_in_brief": "as §1"}, "[18]": {"biological_target": "Neu5Ac(a2-3)[GalNAc(b1-4)]Gal(b1-4)GlcNAc", "method_in_brief": "as §1"}, "[19]": {"biological_target": "Neu5Ac(a2-3)[GalNAc(b1-4)]Gal(b1-4)GlcNAc(b1-3)GalNAc", "method_in_brief": "as §1"}, "[20]": {"biological_target": "Neu5Ac(a2-3)[Neu5Ac(a2-6)]GalNAc", "method_in_brief": "as §1"}, "Neu5Ac(a2-6)Gal": {"biological_target": "Neu5Ac(a2-6)Gal", "method_in_brief": "as §1"}, "[21]": {"biological_target": "Neu5Ac(a2-6)Gal(b1-3)GlcNAc(b1-3)[Gal(b1-4)GlcNAc(b1-6)]Gal(b1-4)Glc", "method_in_brief": "as §1"}, "Neu5Ac(a2-6)Gal(b1-4)Glc": {"biological_target": "Neu5Ac(a2-6)Gal(b1-4)Glc", "method_in_brief": "as §1"}, "[22]": {"biological_target": "Neu5Ac(a2-6)Gal(b1-4)GlcNAc", "method_in_brief": "as §1"}, "[23]": {"biological_target": "Neu5Ac(a2-6)Gal(b1-4)GlcNAc(b1-2)Man", "method_in_brief": "as §1"}, "[24]": {"biological_target": "Neu5Ac(a2-6)Gal(b1-4)GlcNAc(b1-2)Man(a1-3)Man(b1-4)GlcNAc(b1-4)GlcNAc", "method_in_brief": "as §1"}, "[25]": {"biological_target": "Neu5Ac(a2-6)Gal(b1-4)GlcNAc(b1-2)Man(a1-3)[Gal(b1-4)GlcNAc(b1-2)Man(a1-6)]Man(b1-4)GlcNAc(b1-4)GlcNAc", "method_in_brief": "as §1"}, "[26]": {"biological_target": "Neu5Ac(a2-6)Gal(b1-4)GlcNAc(b1-2)Man(a1-3)[GlcNAc(b1-2)Man(a1-6)]Man(b1-4)GlcNAc(b1-4)GlcNAc", "method_in_brief": "as §1"}, "[27]": {"biological_target": "Neu5Ac(a2-6)Gal(b1-4)GlcNAc(b1-2)Man(a1-3)[GlcNAc(b1-4)][Neu5Ac(a2-6)Gal(b1-4)GlcNAc(b1-2)Man(a1-6)]Man(b1-4)GlcNAc(b1-4)GlcNAc", "method_in_brief": "as §1"}}, "note": "This is one part of the list."}
{"binder": "B1", "values": [{"measurement": "glycan array binding signal (z-score)", "setting": "[1]", "value": -0.414}, {"measurement": "glycan array binding signal (z-score)", "setting": "[2]", "value": -0.434}, {"measurement": "glycan array binding signal (z-score)", "setting": "[3]", "value": -0.185}, {"measurement": "glycan array binding signal (z-score)", "setting": "[4]", "value": -0.92}, {"measurement": "glycan array binding signal (z-score)", "setting": "[5]", "value": -0.762}, {"measurement": "glycan array binding signal (z-score)", "setting": "[6]", "value": 0.666}, {"measurement": "glycan array binding signal (z-score)", "setting": "[7]", "value": -0.987}, {"measurement": "glycan array binding signal (z-score)", "setting": "[8]", "value": 0.336}, {"measurement": "glycan array binding signal (z-score)", "setting": "[9]", "value": 0.738}, {"measurement": "glycan array binding signal (z-score)", "setting": "[10]", "value": 0.972}, {"measurement": "glycan array binding signal (z-score)", "setting": "[11]", "value": 2.09}, {"measurement": "glycan array binding signal (z-score)", "setting": "[12]", "value": 2.49}, {"measurement": "glycan array binding signal (z-score)", "setting": "[13]", "value": -1.03}, {"measurement": "glycan array binding signal (z-score)", "setting": "[14]", "value": -0.901}, {"measurement": "glycan array binding signal (z-score)", "setting": "[15]", "value": -0.538}, {"measurement": "glycan array binding signal (z-score)", "setting": "Neu5Ac(a2-3)GalNAc", "value": -1.04}, {"measurement": "glycan array binding signal (z-score)", "setting": "[16]", "value": -0.749}, {"measurement": "glycan array binding signal (z-score)", "setting": "[17]", "value": -0.457}, {"measurement": "glycan array binding signal (z-score)", "setting": "[18]", "value": -0.366}, {"measurement": "glycan array binding signal (z-score)", "setting": "[19]", "value": 0.809}, {"measurement": "glycan array binding signal (z-score)", "setting": "[20]", "value": -0.993}, {"measurement": "glycan array binding signal (z-score)", "setting": "Neu5Ac(a2-6)Gal", "value": 0.04}, {"measurement": "glycan array binding signal (z-score)", "setting": "[21]", "value": 0.889}, {"measurement": "glycan array binding signal (z-score)", "setting": "Neu5Ac(a2-6)Gal(b1-4)Glc", "value": -0.077}, {"measurement": "glycan array binding signal (z-score)", "setting": "[22]", "value": -0.849}, {"measurement": "glycan array binding signal (z-score)", "setting": "[23]", "value": -0.335}, {"measurement": "glycan array binding signal (z-score)", "setting": "[24]", "value": -0.915}, {"measurement": "glycan array binding signal (z-score)", "setting": "[25]", "value": -0.52}, {"measurement": "glycan array binding signal (z-score)", "setting": "[26]", "value": -0.563}, {"measurement": "glycan array binding signal (z-score)", "setting": "[27]", "value": -0.792}]}
